# Measurements as given in PubChem BioAssay AID540276 (National Center for Advancing Translational Sciences (NCATS), 2011).
# About 5,400 (1.8%) of roughly 300,000 compounds were called active. Inconclusive means that the source gave no clear call. Such entries were picked first, then a sample of the others. The call rests on the fitted dose curve; tested in HEK293 cells. Where the call is inconclusive, the potency comes from a doubtful curve fit.
# Assay: qHTS for inhibitors of binding or entry into cells for Marburg Virus
# Conditions: Marburg virus pseudotyped entry inhibition, cell reporter; activity change, negative = inhibition: at 37.8 µM (top of the series) unless noted
# On the % scale 0 is the no-effect control and ±100 the full control effect; potency means the concentration at half of the fitted maximal effect.
SMILES,Potency,"activity change, negative = inhibition"
O=C(CNC(=O)c1cccs1)Nc1ccc2c(c1)OCCO2,"inconclusive: 7.94 µM [inhibitor, partial curve, poor fit]",–
N#CC(C#N)=Cc1cccn1-c1ccc(C(=O)O)cc1,"inconclusive: 22.4 µM [activator, single point]",–
CC(=O)Oc1ccc(C(=O)Nc2ccccc2C(=O)NCC(C)C)cc1,"inconclusive: 3.55 µM [activator, partial curve, poor fit]",–
Cc1ccc(C(C)C)c(OCC(=O)Nc2cc(-c3nc4ccccc4[nH]3)ccc2C)c1,"inconclusive: 3.55 µM [inhibitor, partial curve, poor fit]",–
CC(C)C(=O)NCCc1nc2ccccc2n1CCc1ccccc1,"inconclusive: 10 µM [inhibitor, partial curve, poor fit]",–
CNS(=O)(=O)c1cccc(C(=O)OCc2csc(-c3ccccc3)n2)c1,"inconclusive: 1.78 µM [inhibitor, partial curve, poor fit]",–
Cc1cccc(-n2c(C)cc(C(=O)C(=O)Nc3nncs3)c2C)c1,"inconclusive: 4.47 µM [inhibitor, partial curve]",–
Cc1ccc(O)c(NC(=O)CCS(=O)(=O)c2nc(-c3cccs3)cc(C(F)(F)F)n2)c1,–,inactive: -23% [at 46.1 µM]
C#CC(C)(CC)NC(=O)c1cc2nc(C3CC3)cc(C(F)(F)F)n2n1 (centres undefined),"inconclusive: 14.1 µM [activator, partial curve, poor fit]",–
Fc1ccc2nc(N3CCCC3)sc2c1,–,inactive: 8.41% [at 46.1 µM]
COc1ccc(N2CCN(c3ncnc4scc(-c5ccccc5)c34)CC2)cc1,"inconclusive: 6.31 µM [inhibitor, full curve, poor fit]",–
Brc1ccc(-c2noc(-c3ccccn3)n2)o1,"inconclusive: 0.562 µM [activator, full curve, poor fit]",–
COc1cc2c(CCNC(C)=O)c[nH]c2cc1O,"inconclusive: 4.11 µM [inhibitor, partial curve, poor fit]",–
O=C(Nc1ccc(Cl)cn1)C1C(c2ccccc2)C1(Cl)Cl (centres undefined),"inconclusive: 1.12 µM [inhibitor, full curve, poor fit]",–
COc1ccc(N(CC(=O)Nc2cc(OC)cc(OC)c2)S(=O)(=O)c2c(C)noc2C)cc1,"inconclusive: 35.5 µM [inhibitor, single point]",–
Cc1ccc(C(c2nnnn2C(C)(C)C)N2CCC(C)CC2)cc1 (centres undefined),"inconclusive: 14.6 µM [inhibitor, single point]",–
Cc1ccccc1OC(C)C(=O)N1CCC(Cc2ccccc2)CC1 (centres undefined),–,inactive: -19.2% [at 46.1 µM]

# Whole records, quoted from the list. Order of values: Potency | activity change, negative = inhibition
# `Fc1ccc2nc(N3CCCC3)sc2c1` in the list: – | inactive: 8.41% [at 46.1 µM]
# `CNS(=O)(=O)c1cccc(C(=O)OCc2csc(-c3ccccc3)n2)c1` in the list: inconclusive: 1.78 µM [inhibitor, partial curve, poor fit] | –

# Continued.

SMILES,Potency,"activity change, negative = inhibition"
CCOc1ccc2[nH]c(=O)c(CN(Cc3ccccc3OC)C(=O)c3ccccc3)cc2c1,"inconclusive: 29.1 µM [inhibitor, single point]",–
Oc1ccc(Cl)cc1/C=N/c1nccs1,–,inactive: -4.43%
COc1ccccc1-c1nnc(C2CCN(C(=O)c3ccccc3C)CC2)o1,"inconclusive: 1.58 µM [inhibitor, single point]",–
CC(Sc1nc2cc(Cl)ccc2s1)C(=O)Nc1cccc(S(=O)(=O)N2CCOCC2)c1 (centres undefined),"inconclusive: 20 µM [inhibitor, partial curve, poor fit]",–
N#Cc1nc(Cc2ccccc2)oc1N1CCN(c2ccccc2)CC1,"inconclusive: 16.4 µM [inhibitor, single point]",–
COc1ccc(C(C)=O)cc1COC(=O)Cc1n[nH]c(=O)c2ccccc12,–,inactive: 12.2%
CCN(CC)c1ccc(C(=O)NN)cc1,"inconclusive: 28.2 µM [activator, partial curve, poor fit]",–
O=c1c2cccnc2[nH]c(=S)n1CCCN1CCN(c2ccc(F)cc2)CC1,active: 4.61 µM,–
Cc1nnc(NC(=O)c2ccc(N3CCCC3=O)cc2)s1,–,inactive: 27.8%
COC(=O)c1ccc(NC(=O)CO/N=C2\CCCc3nonc32)cc1,"inconclusive: 5.62 µM [inhibitor, single point]",–
COc1cccc(CN2C(=O)c3cccc(N)c3C2=O)c1,–,inactive: 9.59%
CCc1ccccc1NC(=O)c1cc(-c2ccc(Cl)s2)nc2ccccc12,"inconclusive: 6.31 µM [inhibitor, single point]",–
Cc1ccc(NC(=O)c2ccn(C(=O)Nc3ccccc3)n2)c(C)c1,"inconclusive: 7.08 µM [activator, partial curve]",–
Cc1ccccc1C(=O)c1cccn1CC(=O)NCCCN1CCCCC1,–,inactive: -29.5% [at 46.1 µM]
Cc1oc(-c2ccccc2F)nc1Cn1c(SCc2cccc(C(F)(F)F)c2)nc2ccncc21,"inconclusive: 0.562 µM [inhibitor, full curve, poor fit]",–
CN(CCOc1ccccc1)C(=O)c1cc(S(=O)(=O)N2CCCCC2)ccc1Cl,"inconclusive: 35.5 µM [inhibitor, single point]",–
Cc1cccc(OCCC(=O)Nc2ccc(C)c(S(=O)(=O)N3CCCCC3)c2)c1,"inconclusive: 7.94 µM [inhibitor, partial curve, poor fit]",–
